Consider two molecules from paper PMC11426250.

By UniProt entry, the sequences of proteins in these tests, tags left out.
UniProt Q9UH17: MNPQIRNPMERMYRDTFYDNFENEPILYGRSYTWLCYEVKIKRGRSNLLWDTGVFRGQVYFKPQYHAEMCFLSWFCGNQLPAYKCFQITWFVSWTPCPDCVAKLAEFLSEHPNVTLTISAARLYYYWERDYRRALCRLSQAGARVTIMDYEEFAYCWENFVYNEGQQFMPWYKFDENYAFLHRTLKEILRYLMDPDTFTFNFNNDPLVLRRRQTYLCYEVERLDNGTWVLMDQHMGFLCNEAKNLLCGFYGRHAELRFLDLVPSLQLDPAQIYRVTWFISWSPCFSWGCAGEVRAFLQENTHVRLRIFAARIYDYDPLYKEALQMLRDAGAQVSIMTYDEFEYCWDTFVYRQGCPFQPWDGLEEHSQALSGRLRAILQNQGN

These are yes or no findings as the source states them, for the method shown. Binding seen in cells or lysates may run through a third protein. Some results given as binding are weak or reduced against the parent protein; the word gives no strength.

The target in assay [1] is APOBEC3B (exogenous, transfected) (UniProt Q9UH17). In words: co-IP; HEK293T cells transfected with DTX4 and APOBEC3B; which protein was precipitated is not told.
Assay [2] concerns the target APOBEC3B (endogenous) (human (endogenous in HepG2 and HepG2.2.15)) (UniProt Q9UH17). In words: co-IP; endogenous proteins in HepG2 and HepG2.2.15 cells; which protein was precipitated is not told.

B1: DTX4 (exogenous, transfected) (enzyme, UniProt Q9Y2E6 1-619)
chain: MLLASAVVVWEWLNEHGRWRPYSPAVSHHIEAVVRAGPRAGGSVVLGQVDSRLAPYIIDLQSMNQFRQDTGTLRPVRRNYYDPSSAPGKGVVWEWENDNGSWTPYDMEVGITIQHAYEKQHPWIDLTSIGFSYVIDFNTMGQINRQTQRQRRVRRRLDLIYPMVTGTLPKAQSWPVSPGPATSPPMSPCSCPQCVLVMSVKAAVVNGSTGPLQLPVTRKNMPPPGVVKLPPLPGSGAKPLDSTGTIRGPLKTAPSQVIRRQASSMPTGTTMGSPASPPGPNSKTGRVALATLNRTNLQRLAIAQSRVLIASGVPTVPVKNLNGSSPVNPALAGITGILMSAAGLPVCLTRPPKLVLHPPPVSKSEIKSIPGVSNTSRKTTKKQAKKGKTPEEVLKKYLQKVRHPPDEDCTICMERLTAPSGYKGPQPTVKPDLVGKLSRCGHVYHIYCLVAMYNNGNKDGSLQCPTCKTIYGVKTGTQPPGKMEYHLIPHSLPGHPDCKTIRIIYSIPPGIQGPEHPNPGKSFSARGFPRHCYLPDSEKGRKVLKLLLVAWDRRLIFAIGTSSTTGESDTVIWNEVHHKTEFGSNLTGHGYPDANYLDNVLAELAAQGISEDSTAQEKD
Regarding B1, the binding entry in assay [1] is listed as “binds”.

B2: DTX4 (endogenous) (enzyme, UniProt Q9Y2E6 1-619)
chain: MLLASAVVVWEWLNEHGRWRPYSPAVSHHIEAVVRAGPRAGGSVVLGQVDSRLAPYIIDLQSMNQFRQDTGTLRPVRRNYYDPSSAPGKGVVWEWENDNGSWTPYDMEVGITIQHAYEKQHPWIDLTSIGFSYVIDFNTMGQINRQTQRQRRVRRRLDLIYPMVTGTLPKAQSWPVSPGPATSPPMSPCSCPQCVLVMSVKAAVVNGSTGPLQLPVTRKNMPPPGVVKLPPLPGSGAKPLDSTGTIRGPLKTAPSQVIRRQASSMPTGTTMGSPASPPGPNSKTGRVALATLNRTNLQRLAIAQSRVLIASGVPTVPVKNLNGSSPVNPALAGITGILMSAAGLPVCLTRPPKLVLHPPPVSKSEIKSIPGVSNTSRKTTKKQAKKGKTPEEVLKKYLQKVRHPPDEDCTICMERLTAPSGYKGPQPTVKPDLVGKLSRCGHVYHIYCLVAMYNNGNKDGSLQCPTCKTIYGVKTGTQPPGKMEYHLIPHSLPGHPDCKTIRIIYSIPPGIQGPEHPNPGKSFSARGFPRHCYLPDSEKGRKVLKLLLVAWDRRLIFAIGTSSTTGESDTVIWNEVHHKTEFGSNLTGHGYPDANYLDNVLAELAAQGISEDSTAQEKD
B2: the binding entry in assay [2] is reported as “binds”.
